{"source": "patent US11738099B2", "about": "(CASE WESTERN RESERVE UNIVERSITY, priority 2014, dated 2023)", "experiment": "general procedure: Fmoc solid-phase peptide synthesis; 2-chlorotrityl chloride resin", "settings": "conjugation step", "note": "Where no end group is shown, it is not given here.", "data": [{"sequence": "CTVRTSAD", "values": [{"measurement": "conjugation yield", "value": 82, "unit": "%"}]}]}
